# Results as given in the supplement of paper PMC12067093, “Discovery and optimisation of a covalent ligand for TRIM25 and its application to targeted protein ubiquitination” (Chemical Science, 2025).
# The chains behind the UniProt entries cited, without tags or fusion partners. Where a name states a change or a piece, a line headed by the entry shows the natural chain unless it says otherwise.
# UniProt Q68DQ2: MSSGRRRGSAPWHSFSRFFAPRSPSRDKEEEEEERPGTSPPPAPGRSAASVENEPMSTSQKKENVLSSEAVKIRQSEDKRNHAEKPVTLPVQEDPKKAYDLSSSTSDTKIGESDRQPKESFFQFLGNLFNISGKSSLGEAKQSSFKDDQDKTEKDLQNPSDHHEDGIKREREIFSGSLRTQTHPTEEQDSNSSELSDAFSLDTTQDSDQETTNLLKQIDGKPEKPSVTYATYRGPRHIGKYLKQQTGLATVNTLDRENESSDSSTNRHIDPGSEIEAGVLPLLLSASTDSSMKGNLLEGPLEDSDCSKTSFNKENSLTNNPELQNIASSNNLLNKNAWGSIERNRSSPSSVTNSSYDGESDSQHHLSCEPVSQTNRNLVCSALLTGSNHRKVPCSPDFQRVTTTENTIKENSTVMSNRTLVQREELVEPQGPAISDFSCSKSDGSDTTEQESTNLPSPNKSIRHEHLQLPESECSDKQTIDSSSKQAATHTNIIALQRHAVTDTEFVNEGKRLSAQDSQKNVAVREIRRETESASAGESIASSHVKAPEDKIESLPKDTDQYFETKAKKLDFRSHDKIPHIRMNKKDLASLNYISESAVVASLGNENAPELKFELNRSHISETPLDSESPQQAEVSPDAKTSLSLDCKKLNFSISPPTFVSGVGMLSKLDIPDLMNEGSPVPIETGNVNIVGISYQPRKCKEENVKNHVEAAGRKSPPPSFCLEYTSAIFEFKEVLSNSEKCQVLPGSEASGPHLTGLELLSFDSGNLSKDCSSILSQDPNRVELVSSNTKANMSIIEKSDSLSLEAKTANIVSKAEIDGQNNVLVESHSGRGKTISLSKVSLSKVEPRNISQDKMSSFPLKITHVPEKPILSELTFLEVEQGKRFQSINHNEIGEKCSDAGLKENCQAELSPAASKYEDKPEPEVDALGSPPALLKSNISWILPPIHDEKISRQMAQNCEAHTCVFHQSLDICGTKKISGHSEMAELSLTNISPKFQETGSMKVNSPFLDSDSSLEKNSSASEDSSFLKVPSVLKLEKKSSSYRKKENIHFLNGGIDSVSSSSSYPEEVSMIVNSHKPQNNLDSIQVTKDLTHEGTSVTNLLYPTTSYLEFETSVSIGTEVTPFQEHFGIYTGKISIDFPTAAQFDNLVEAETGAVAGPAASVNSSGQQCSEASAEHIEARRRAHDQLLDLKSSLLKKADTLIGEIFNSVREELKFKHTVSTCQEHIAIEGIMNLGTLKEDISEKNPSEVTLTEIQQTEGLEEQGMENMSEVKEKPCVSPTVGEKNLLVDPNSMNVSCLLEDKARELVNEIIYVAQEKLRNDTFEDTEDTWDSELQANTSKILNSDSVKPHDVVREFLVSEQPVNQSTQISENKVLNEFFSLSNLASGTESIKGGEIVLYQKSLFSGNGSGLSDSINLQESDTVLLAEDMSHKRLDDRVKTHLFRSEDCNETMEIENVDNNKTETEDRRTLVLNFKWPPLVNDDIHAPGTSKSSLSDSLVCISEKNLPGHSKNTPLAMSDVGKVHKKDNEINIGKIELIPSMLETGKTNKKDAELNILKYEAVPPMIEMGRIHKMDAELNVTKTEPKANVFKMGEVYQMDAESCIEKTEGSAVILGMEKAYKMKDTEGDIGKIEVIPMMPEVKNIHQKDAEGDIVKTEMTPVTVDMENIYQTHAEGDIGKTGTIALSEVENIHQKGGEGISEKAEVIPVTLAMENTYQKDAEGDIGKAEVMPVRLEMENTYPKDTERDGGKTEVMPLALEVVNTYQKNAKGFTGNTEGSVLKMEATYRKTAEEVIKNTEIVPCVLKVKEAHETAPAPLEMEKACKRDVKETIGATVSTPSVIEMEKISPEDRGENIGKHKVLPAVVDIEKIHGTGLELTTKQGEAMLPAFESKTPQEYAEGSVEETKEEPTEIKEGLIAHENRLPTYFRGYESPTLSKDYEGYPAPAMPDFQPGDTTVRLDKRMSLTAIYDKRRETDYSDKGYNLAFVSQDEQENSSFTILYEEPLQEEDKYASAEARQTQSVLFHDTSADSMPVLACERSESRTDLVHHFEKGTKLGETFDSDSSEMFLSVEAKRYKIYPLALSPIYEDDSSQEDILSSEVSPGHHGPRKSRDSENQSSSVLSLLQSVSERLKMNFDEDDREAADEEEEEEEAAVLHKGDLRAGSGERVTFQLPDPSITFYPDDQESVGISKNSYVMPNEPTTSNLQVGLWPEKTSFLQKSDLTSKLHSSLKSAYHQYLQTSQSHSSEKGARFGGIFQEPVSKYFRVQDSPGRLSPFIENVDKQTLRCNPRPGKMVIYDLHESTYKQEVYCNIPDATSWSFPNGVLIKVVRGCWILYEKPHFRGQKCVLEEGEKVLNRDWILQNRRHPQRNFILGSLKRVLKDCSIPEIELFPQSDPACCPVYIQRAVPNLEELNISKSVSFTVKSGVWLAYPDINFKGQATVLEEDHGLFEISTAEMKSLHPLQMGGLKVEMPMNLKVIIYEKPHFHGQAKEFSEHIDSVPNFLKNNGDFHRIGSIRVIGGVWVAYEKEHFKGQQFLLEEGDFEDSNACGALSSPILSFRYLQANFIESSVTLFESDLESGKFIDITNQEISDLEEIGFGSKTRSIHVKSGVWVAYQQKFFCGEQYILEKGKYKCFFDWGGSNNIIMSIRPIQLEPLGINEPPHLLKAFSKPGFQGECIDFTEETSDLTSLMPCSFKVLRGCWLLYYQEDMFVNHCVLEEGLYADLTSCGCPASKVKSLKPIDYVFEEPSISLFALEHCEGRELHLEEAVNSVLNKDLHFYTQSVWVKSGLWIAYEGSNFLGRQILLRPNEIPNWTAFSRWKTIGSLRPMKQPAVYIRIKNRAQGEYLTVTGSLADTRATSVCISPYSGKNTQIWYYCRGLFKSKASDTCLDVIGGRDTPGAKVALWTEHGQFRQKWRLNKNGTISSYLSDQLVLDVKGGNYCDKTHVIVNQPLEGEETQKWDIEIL
# UniProt P53674: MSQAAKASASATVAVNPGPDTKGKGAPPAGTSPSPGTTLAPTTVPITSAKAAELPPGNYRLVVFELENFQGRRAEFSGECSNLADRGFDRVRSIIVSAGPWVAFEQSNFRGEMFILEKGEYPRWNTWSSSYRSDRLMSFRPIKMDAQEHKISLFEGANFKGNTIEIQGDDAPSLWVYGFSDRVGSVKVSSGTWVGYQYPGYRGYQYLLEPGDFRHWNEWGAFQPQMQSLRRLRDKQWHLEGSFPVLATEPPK
# UniProt O60716: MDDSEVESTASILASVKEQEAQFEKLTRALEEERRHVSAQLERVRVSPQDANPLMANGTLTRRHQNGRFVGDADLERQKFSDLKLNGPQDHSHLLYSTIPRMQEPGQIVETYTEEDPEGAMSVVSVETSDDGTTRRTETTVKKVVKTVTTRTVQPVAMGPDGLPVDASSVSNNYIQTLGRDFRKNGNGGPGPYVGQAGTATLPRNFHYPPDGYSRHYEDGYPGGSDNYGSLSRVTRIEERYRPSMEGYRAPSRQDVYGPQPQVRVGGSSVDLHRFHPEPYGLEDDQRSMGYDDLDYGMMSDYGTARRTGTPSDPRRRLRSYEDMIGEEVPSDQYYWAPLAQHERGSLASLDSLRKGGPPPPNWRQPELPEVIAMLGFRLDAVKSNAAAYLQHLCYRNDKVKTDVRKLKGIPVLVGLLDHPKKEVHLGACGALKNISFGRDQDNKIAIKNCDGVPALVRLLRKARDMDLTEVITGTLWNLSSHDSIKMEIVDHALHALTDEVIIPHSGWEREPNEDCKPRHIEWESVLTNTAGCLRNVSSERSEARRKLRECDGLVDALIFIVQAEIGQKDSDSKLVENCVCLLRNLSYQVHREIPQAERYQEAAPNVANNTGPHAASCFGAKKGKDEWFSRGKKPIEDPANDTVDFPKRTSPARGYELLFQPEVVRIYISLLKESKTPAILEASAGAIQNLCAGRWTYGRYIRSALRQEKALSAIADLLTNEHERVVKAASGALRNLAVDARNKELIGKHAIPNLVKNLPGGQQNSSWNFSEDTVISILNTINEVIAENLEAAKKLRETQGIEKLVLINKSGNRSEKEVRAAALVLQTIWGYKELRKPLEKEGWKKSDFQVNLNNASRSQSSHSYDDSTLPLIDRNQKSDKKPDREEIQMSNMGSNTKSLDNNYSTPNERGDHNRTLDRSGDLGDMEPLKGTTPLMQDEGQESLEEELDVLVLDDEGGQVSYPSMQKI
# UniProt P21291: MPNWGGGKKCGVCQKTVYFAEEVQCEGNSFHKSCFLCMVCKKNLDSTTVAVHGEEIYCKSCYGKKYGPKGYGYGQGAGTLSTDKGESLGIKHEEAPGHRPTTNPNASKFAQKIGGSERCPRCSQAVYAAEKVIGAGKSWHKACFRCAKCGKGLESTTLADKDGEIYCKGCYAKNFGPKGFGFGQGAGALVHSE
# UniProt P35222, whole entry, looked up: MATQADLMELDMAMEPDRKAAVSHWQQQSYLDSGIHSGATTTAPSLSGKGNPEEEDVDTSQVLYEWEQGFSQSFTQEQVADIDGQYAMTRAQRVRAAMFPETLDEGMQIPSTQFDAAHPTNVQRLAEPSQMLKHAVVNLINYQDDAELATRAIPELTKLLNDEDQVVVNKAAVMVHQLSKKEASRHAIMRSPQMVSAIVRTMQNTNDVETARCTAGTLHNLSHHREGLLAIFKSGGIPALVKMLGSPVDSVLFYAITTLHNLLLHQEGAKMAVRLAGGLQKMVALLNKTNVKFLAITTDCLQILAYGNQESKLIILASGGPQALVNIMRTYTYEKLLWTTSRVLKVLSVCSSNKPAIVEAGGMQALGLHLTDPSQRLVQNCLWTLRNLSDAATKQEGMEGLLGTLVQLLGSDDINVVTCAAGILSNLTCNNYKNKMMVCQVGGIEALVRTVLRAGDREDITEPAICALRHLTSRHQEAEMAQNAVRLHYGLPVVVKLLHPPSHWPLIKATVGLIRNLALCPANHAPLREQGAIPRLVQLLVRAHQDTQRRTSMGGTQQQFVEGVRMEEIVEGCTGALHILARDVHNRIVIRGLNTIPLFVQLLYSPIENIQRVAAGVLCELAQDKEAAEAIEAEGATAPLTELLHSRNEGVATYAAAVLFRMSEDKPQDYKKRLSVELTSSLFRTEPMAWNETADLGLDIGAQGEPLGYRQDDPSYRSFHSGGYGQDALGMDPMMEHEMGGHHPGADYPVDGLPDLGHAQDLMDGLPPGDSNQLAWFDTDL
# UniProt O15320, whole entry, looked up: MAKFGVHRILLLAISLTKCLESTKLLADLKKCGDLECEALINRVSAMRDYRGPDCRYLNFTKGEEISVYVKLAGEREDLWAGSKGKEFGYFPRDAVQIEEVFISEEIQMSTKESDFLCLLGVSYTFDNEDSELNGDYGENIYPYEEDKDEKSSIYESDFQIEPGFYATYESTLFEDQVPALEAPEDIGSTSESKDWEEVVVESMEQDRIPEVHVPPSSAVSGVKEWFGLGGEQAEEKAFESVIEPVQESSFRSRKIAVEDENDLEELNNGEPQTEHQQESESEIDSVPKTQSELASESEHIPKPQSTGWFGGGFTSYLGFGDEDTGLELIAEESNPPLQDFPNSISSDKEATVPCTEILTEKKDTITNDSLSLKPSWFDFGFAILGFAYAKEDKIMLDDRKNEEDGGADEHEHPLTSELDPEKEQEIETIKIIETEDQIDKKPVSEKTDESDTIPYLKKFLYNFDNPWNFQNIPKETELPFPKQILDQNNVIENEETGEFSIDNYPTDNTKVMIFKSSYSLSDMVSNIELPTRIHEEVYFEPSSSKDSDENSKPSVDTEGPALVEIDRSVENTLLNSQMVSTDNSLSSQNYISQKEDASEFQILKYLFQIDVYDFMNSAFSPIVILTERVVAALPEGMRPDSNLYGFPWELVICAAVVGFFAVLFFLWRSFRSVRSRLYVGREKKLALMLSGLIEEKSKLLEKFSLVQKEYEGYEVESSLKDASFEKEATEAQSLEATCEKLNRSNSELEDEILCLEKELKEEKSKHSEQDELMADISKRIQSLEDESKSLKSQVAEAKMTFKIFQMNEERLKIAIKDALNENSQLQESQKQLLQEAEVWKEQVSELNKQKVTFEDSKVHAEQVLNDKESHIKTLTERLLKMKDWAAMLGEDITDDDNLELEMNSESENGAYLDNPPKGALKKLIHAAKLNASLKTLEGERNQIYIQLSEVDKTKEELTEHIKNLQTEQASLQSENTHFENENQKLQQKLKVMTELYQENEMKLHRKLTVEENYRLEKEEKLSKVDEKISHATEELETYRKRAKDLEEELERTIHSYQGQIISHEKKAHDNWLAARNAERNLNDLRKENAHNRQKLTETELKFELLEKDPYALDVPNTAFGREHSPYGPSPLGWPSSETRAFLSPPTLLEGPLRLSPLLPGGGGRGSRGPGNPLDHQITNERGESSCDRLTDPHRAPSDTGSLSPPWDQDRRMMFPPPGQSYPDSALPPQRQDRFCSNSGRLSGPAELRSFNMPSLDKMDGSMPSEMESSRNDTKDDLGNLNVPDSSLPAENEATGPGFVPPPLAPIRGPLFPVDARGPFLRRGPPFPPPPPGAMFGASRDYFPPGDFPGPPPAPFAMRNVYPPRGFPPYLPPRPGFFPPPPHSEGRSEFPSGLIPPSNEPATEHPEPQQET
# Some of the results follow.
# Compound: CC1Cc2ccccc2N1C(=O)C1CCCN(C1)C(=O)CCl (mixture of isomers) [TRIM25 ligand 11 (diastereomer mixture)]
# Experiment: probe-labelled cysteine peptide fold change vs DMSO (competition) (log2 fold change); higher = less target engagement (more negative = stronger competition)
# Settings: 10 µM; THP-1; incubation time: 4 h
# 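Further: competitive chemoproteomic profiling in live THP-1 cells with an iodoacetamide desthiobiotin (IA-DTB) probe, comparing probe-labelled peptide intensities in compound-treated cells against DMSO-treated controls.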
row,Target,probe-labelled cysteine peptide fold change
1,CRIP2_P52943_150_DWHRPCLR (UniProt P52943),0.642
2,CPVL_Q9H3G5_320_CTEPEDQLYYVK (UniProt Q9H3G5),-0.0111
3,CRTAP_O75718_317_NAAPCAVSYLLFDQNDK (UniProt O75718),0.208
4,CRYBG3_Q68DQ2_439_EELVEPQGPAISDFSCSK (UniProt Q68DQ2),-0.0652
5,CROT_Q9UKG9_166_MLFSTCK (UniProt Q9UKG9),0.00234
6,CRYBB1_P53674_80_RAEFSGECSNLADR (UniProt P53674),-0.0491
7,CSTF3_Q12996_176_GCVNPMINIEQLWR (UniProt Q12996),0.0135
8,CORO1B_Q9BR76_195_LDSLHPDLIYNVSWNHNGSLFCSACK (UniProt Q9BR76),0.371
9,CTNND1_O60716_394_SNAAAYLQHLCYR (UniProt O60716),-0.172
10,CRIP1_P50238_52_PYCNHPCYAAMFGPK (UniProt P50238),-0.178
11,CORO1C_Q9ULV4_23_NDQCYDDIR (UniProt Q9ULV4),-0.0287
12,CPSF1_Q10570_1020_CTAHYVAYHVESK (UniProt Q10570),0.0805
13,CPSF1_Q10570_20_QAHPPTGLEFSMYCNFFNNSER (UniProt Q10570),0.0303
14,CPVL_Q9H3G5_271_QCHECIEHIR (UniProt Q9H3G5),0.11
15,CSRP1_P21291_34_SCFLCMVCK (UniProt P21291),0.0696
16,CORO7_P57737_325_QALAVMSCEVLR (UniProt P57737),0.179
17,CSDE1_O75534_680_ATVECVK (UniProt O75534),0.0785
18,CRELD2_Q6UXH1_120_SEYPDLFEWFCVK (UniProt Q6UXH1),0.193
19,CTCF_P49711_497_CDQCDYACR (UniProt P49711),-0.0139
20,CPSF2_Q9P2I0_578_QLIIVHGPPEASQDLAECCR (UniProt Q9P2I0),0.341

row,Target,probe-labelled cysteine peptide fold change
1,CTNNB1_P35222_466_AGDREDITEPAICALR (UniProt P35222),0.0391
2,CTNNA1_P35221_228_NVPILYTASQACLQHPDVAAYK (UniProt P35221),0.051
3,CTAGE5_O15320_579_GESSCDR (UniProt Q96PC5+O15320),0.042
4,CPSF4_O95639_162_RVICVNYLVGFCPEGPSCK (UniProt O95639),-0.292
5,CORO1A_P31146_24_ADQCYEDVR (UniProt P31146),-0.0083
6,CREBBP_Q92793_1213_KYEFSPQTLCCYGK (UniProt Q92793),0.0691
7,CPSF6_Q16630_476_VLISSLQDCLHGIESK (UniProt Q16630),-0.167
8,CRYBG3_Q68DQ2_474_HEHLQLPESECSDK (UniProt Q68DQ2),0.101
9,CSRP1_P21291_58_NLDSTTVAVHGEEIYCK (UniProt P21291),0.119
10,CPT2_P23786_535_HSAGELQQMMVECSK (UniProt P23786),-0.00982
11,CRYZL1_O95825_302_YLCILK (UniProt O95825),-0.0748
12,CRYBG3_Q68DQ2_1502_SSLSDSLVCISEK (UniProt Q68DQ2),0.023
13,CPSF6_Q16630_159_ELHGQNPVVTPCNK (UniProt Q16630),0.0533
14,CSMD2_Q7Z408-3_2_CDAHLR (UniProt Q7Z408),-0.56
15,CTCF_P49711_557_YHDPNFVPAAFVCSK (UniProt P49711),-0.0756
16,CPNE2_Q96FN4_388+401_VSHEFAINFNPTNPFCSGVDGIAQAYSACLPHIR (UniProt Q96FN4),0.302
17,CORO6_Q6QEF8_344_KCEPIIMTVPR (UniProt Q6QEF8),-0.0909
18,CSNK2B_P67870_109_YQQGDFGYCPR (UniProt P67870),0.0726
19,CORO1B_Q9BR76_345_CEPIVMTVPR (UniProt Q9BR76),-0.0485

# Same assay, conditions: 50 µM; THP-1; incubation time: 4 h
row,Target,probe-labelled cysteine peptide fold change
1,CRIP2_P52943_150_DWHRPCLR (UniProt P52943),-0.0653
2,CPVL_Q9H3G5_320_CTEPEDQLYYVK (UniProt Q9H3G5),-0.168
3,CRTAP_O75718_317_NAAPCAVSYLLFDQNDK (UniProt O75718),0.0626
4,CRYBG3_Q68DQ2_439_EELVEPQGPAISDFSCSK (UniProt Q68DQ2),-0.0273
5,CROT_Q9UKG9_166_MLFSTCK (UniProt Q9UKG9),0.0419
6,CRYBB1_P53674_80_RAEFSGECSNLADR (UniProt P53674),-0.0109
7,CSTF3_Q12996_176_GCVNPMINIEQLWR (UniProt Q12996),0.0147
8,CORO1B_Q9BR76_195_LDSLHPDLIYNVSWNHNGSLFCSACK (UniProt Q9BR76),0.0874
9,CTNND1_O60716_394_SNAAAYLQHLCYR (UniProt O60716),0.00849
10,CRIP1_P50238_52_PYCNHPCYAAMFGPK (UniProt P50238),-0.259
11,CORO1C_Q9ULV4_23_NDQCYDDIR (UniProt Q9ULV4),-0.0243
12,CPSF1_Q10570_1020_CTAHYVAYHVESK (UniProt Q10570),0.0337
13,CPSF1_Q10570_20_QAHPPTGLEFSMYCNFFNNSER (UniProt Q10570),0.0242
14,CPVL_Q9H3G5_271_QCHECIEHIR (UniProt Q9H3G5),0.292
15,CSRP1_P21291_34_SCFLCMVCK (UniProt P21291),0.11
16,CORO7_P57737_325_QALAVMSCEVLR (UniProt P57737),0.183
17,CSDE1_O75534_680_ATVECVK (UniProt O75534),0.231
18,CRELD2_Q6UXH1_120_SEYPDLFEWFCVK (UniProt Q6UXH1),0.154
19,CTCF_P49711_497_CDQCDYACR (UniProt P49711),0.0637
20,CPSF2_Q9P2I0_578_QLIIVHGPPEASQDLAECCR (UniProt Q9P2I0),0.0138

row,Target,probe-labelled cysteine peptide fold change
1,CTNNB1_P35222_466_AGDREDITEPAICALR (UniProt P35222),0.0697
2,CTNNA1_P35221_228_NVPILYTASQACLQHPDVAAYK (UniProt P35221),0.218
3,CTAGE5_O15320_579_GESSCDR (UniProt Q96PC5+O15320),0.548
4,CPSF4_O95639_162_RVICVNYLVGFCPEGPSCK (UniProt O95639),0.0715
5,CORO1A_P31146_24_ADQCYEDVR (UniProt P31146),-0.0868
6,CREBBP_Q92793_1213_KYEFSPQTLCCYGK (UniProt Q92793),-0.0234
7,CPSF6_Q16630_476_VLISSLQDCLHGIESK (UniProt Q16630),-0.0708
8,CRYBG3_Q68DQ2_474_HEHLQLPESECSDK (UniProt Q68DQ2),-0.0291
9,CSRP1_P21291_58_NLDSTTVAVHGEEIYCK (UniProt P21291),0.0779
10,CPT2_P23786_535_HSAGELQQMMVECSK (UniProt P23786),-0.219
11,CRYZL1_O95825_302_YLCILK (UniProt O95825),-0.019
12,CRYBG3_Q68DQ2_1502_SSLSDSLVCISEK (UniProt Q68DQ2),-0.244
13,CPSF6_Q16630_159_ELHGQNPVVTPCNK (UniProt Q16630),0.00734
14,CSMD2_Q7Z408-3_2_CDAHLR (UniProt Q7Z408),-0.972
15,CTCF_P49711_557_YHDPNFVPAAFVCSK (UniProt P49711),-0.00832
16,CPNE2_Q96FN4_388+401_VSHEFAINFNPTNPFCSGVDGIAQAYSACLPHIR (UniProt Q96FN4),0.0685
17,CORO6_Q6QEF8_344_KCEPIIMTVPR (UniProt Q6QEF8),-0.0964
18,CSNK2B_P67870_109_YQQGDFGYCPR (UniProt P67870),-0.018
19,CORO1B_Q9BR76_345_CEPIVMTVPR (UniProt Q9BR76),-0.00803
